Test results reported in paper PMC11705050.
Results are given in words; binding and its absence hold for the method and conditions named. Binding seen in cells or lysates may run through a third protein. Some binding calls cover weakened binding; strength is not graded here.

Chains of the proteins cited; added tags and fusions are not shown.
UniProt P17844: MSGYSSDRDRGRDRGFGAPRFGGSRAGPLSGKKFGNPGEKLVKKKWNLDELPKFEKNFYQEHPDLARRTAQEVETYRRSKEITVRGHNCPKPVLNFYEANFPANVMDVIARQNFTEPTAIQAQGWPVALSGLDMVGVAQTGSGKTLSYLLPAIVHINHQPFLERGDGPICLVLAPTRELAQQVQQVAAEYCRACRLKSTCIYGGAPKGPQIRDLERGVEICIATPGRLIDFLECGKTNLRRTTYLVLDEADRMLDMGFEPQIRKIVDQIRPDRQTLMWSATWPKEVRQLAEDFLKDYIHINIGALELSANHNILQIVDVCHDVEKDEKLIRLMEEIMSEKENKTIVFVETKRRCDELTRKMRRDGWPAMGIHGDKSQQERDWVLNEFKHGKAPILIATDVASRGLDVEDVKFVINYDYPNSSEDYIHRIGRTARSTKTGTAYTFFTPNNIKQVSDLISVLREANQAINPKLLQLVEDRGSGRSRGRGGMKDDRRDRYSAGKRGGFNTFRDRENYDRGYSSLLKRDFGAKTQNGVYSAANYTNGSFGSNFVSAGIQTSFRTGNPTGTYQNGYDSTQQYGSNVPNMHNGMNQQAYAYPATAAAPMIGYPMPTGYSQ
UniProt P35222: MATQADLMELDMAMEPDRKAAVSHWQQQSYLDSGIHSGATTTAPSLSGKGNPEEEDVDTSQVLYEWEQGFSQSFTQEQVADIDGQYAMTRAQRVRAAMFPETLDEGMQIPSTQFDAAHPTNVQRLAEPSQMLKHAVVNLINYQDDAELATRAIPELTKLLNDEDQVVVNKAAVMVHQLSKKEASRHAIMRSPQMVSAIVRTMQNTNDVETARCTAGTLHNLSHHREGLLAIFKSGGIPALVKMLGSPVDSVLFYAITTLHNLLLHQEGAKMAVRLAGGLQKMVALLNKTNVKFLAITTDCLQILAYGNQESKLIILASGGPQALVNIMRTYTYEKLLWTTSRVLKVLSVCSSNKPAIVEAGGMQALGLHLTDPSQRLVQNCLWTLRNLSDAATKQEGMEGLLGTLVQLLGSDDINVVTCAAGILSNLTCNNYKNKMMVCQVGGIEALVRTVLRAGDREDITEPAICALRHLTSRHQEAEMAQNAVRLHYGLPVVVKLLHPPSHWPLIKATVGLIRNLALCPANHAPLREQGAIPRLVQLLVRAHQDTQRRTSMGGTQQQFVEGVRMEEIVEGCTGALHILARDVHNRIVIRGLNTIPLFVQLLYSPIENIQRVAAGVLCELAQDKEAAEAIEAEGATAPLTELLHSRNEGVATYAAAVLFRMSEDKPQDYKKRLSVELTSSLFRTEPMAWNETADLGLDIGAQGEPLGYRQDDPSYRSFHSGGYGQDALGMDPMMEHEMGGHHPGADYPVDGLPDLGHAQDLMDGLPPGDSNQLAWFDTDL

Molecular target: DDX5 (human (endogenous in 5637 and SW780)) (UniProt P17844)
Experiment: co-IP; anti-DDX5 antibody incubated with lysates of 5637 and SW780 cells (immunoprecipitation lysis buffer with PMSF) at 4°C overnight; complexes enriched with magnetic beads, analysed by western blot

binding: binds
Substance: β-catenin (from UniProt P35222 1-781)
